Test results from patent US7183075B2, “Purified and isolated potassium-chloride cotransporter nucleic acids and polypeptides and therapeutic and screening methods using same” (Vanderbilt University, priority 2000, dated 2007).

Amino acid sequences for entries named in this document (tags omitted). A change or cut given only in a name is not applied to a line headed by its entry.
UniProt Q9UHW9: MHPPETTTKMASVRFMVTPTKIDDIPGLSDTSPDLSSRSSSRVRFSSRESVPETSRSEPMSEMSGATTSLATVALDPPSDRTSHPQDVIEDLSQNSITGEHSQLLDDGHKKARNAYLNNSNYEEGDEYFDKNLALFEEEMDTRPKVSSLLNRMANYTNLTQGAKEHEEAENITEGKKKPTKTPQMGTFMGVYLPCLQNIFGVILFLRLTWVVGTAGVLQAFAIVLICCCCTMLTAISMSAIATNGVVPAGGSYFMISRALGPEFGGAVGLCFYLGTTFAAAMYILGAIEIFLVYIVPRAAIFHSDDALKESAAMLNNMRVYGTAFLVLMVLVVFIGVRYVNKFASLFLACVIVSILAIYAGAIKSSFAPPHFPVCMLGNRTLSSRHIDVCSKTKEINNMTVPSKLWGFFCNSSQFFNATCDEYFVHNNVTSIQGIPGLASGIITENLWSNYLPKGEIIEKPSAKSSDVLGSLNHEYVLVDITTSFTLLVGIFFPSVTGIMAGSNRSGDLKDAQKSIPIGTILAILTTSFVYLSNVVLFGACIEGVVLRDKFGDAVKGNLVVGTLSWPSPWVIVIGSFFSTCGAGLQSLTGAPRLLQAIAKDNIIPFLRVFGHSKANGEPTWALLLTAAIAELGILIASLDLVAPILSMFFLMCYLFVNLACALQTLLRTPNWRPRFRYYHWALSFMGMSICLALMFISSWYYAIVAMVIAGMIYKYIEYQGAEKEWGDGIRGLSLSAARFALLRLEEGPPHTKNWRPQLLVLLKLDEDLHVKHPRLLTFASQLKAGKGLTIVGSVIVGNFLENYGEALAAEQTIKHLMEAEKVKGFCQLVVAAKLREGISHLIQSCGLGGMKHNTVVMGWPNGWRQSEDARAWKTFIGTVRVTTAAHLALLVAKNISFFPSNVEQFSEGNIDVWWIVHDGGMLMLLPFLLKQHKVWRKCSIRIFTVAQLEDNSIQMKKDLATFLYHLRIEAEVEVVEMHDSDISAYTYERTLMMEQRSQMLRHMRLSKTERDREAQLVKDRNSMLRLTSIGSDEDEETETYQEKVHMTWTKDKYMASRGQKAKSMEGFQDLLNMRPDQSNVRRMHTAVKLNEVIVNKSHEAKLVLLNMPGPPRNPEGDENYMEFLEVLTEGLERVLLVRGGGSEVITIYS

Target: T1, hKCC3b (Homo sapiens, UniProt Q9UHW9)
T1 construct: expressed in transfected cells; host or cells: Xenopus oocytes microinjected with KCC3b cRNA
T1 sequence (Q9UHW9 1-1099 isoform Q9UHW9-2): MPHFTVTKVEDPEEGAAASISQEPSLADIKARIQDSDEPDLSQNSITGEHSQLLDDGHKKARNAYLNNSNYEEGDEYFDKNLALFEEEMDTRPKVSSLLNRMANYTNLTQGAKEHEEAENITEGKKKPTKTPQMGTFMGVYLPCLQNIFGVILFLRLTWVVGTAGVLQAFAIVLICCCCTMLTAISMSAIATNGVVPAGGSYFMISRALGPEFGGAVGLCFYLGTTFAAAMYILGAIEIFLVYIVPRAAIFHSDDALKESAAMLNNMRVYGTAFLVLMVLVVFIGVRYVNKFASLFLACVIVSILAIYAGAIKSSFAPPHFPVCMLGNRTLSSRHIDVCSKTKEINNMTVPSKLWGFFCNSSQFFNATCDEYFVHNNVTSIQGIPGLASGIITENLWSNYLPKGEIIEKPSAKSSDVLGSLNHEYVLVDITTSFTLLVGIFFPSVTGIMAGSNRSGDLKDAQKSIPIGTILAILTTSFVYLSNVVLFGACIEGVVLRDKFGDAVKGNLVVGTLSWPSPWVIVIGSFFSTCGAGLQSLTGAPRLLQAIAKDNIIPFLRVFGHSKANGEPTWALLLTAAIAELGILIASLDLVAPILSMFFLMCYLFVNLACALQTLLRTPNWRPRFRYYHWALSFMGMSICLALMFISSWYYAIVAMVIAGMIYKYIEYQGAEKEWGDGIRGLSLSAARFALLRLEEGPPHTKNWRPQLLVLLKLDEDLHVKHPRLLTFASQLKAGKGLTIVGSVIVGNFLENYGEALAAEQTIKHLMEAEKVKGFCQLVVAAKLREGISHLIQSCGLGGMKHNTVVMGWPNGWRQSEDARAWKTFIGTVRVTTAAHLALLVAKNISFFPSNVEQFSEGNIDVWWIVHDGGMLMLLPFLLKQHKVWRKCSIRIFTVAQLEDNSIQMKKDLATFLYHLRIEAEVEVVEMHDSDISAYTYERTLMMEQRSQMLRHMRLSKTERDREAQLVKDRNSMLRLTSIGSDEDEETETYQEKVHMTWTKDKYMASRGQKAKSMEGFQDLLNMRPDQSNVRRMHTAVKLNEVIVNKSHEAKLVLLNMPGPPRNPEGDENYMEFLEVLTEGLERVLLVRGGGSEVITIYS
Assay type: cell-based
Description: Open bars, uptake assays performed in a control medium containing 10 mM K^+and 50 mM Cl^−; hatched bars, uptake assays performed in medium lacking Cl^−; bars with horizontal stripes, uptake assays performed in the presence of 100 nM calyculin A; black bars, uptake assays performed in the presence of okadaic acid; gray bars, uptake assays performed in the presence of cypermetrin.

NS(=O)(=O)c1cc(C(=O)O)c(NCc2ccco2)cc1Cl [furosemide]
hKCC3b-mediated K+-Cl- cotransport in the presence of putative inhibitors: sensitive
